The values below come from publication PMC6954888.

By UniProt entry, the sequences of proteins in these tests, tags left out.
UniProt P46937: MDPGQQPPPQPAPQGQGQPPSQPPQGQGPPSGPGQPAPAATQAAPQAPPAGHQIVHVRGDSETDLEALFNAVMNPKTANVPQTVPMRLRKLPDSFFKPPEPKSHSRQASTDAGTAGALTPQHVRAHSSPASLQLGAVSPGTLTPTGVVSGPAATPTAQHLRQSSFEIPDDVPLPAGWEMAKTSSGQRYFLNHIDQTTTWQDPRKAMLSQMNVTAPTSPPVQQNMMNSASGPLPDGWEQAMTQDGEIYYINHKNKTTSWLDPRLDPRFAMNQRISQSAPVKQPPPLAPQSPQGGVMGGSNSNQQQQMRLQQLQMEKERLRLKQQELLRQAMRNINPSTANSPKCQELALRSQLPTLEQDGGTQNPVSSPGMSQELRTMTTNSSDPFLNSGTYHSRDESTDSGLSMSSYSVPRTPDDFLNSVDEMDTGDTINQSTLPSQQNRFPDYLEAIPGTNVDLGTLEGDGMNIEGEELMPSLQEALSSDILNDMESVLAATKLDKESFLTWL

The target of test [1] is T1, ubiquitin specific peptidase 47 (USP47) (UniProt Q96K76).
T1 sequence: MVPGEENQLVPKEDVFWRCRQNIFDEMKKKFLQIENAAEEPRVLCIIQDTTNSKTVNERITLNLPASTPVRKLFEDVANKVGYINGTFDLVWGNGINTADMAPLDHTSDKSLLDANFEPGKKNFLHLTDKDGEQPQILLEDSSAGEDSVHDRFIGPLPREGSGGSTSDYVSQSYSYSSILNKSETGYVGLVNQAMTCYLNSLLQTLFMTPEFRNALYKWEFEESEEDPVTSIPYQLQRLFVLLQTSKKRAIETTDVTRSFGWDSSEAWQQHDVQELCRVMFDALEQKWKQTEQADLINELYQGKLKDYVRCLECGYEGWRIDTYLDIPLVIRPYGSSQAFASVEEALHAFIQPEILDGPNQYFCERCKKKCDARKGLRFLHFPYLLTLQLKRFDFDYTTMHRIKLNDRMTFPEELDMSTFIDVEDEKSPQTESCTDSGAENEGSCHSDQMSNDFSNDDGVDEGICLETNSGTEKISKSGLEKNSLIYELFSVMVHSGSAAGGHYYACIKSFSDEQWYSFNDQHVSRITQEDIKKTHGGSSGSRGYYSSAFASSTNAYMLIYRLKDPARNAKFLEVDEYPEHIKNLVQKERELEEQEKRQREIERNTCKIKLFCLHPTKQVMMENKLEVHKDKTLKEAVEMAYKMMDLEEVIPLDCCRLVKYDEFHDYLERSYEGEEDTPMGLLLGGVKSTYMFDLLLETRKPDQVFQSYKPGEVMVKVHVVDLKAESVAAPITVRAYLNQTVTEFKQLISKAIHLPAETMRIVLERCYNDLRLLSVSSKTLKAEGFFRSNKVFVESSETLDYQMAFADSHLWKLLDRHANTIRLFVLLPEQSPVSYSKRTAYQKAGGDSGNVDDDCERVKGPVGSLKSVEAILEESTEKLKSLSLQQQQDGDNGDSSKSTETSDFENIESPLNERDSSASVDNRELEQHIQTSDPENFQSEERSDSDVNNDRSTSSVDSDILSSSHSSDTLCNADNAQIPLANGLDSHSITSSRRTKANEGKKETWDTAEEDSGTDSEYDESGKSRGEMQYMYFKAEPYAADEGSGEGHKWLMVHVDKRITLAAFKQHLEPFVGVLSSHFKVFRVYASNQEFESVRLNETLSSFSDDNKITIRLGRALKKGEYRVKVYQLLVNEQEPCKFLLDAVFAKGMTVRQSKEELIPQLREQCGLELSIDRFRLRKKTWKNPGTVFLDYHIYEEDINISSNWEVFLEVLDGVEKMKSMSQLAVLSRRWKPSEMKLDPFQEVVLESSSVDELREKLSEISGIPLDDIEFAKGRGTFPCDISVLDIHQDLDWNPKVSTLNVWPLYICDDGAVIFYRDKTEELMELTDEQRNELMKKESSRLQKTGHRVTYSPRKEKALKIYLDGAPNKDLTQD
The test is described as follows: co-IP; Flag-YAP and Xpress-USP47 co-transfected into HEK293T cells; immunoprecipitation with α-Flag beads or α-Xpress beads, immunoblotting with α-Xpress or α-Flag antibody. On the technique in general: In western blotting, separated proteins are transferred to a membrane and probed.

The target in test [2] is Yes-associated protein (YAP) (UniProt P46937). The test is described as above.

These are yes or no findings as the source states them, for the method shown. Binding seen in cells or lysates may run through a third protein. Some entries that bind do so weakly or less than the wild type.

On to “Yes-associated protein (YAP) (from UniProt P46937 1-504)”, for which the binding entry in test [1] is recorded as “binds”.

B1: ubiquitin specific peptidase 47 (USP47) (enzyme, UniProt Q96K76 1-1375)
chain: T1 sequence
B1: the binding result in test [2] is on record as “binds”.
